# Reference: the supplement of paper PMC8728848
# Some of the results follow.
# B1: HA-61200 (Pseudomonas aeruginosa), Q02SP8_PSEAB (protein)
# chain: MNKCYALVWNVSQGCWNVVSEGSRRRGKPAGAKAAIASVLALLGATALAPAYALPSGGTVVGGSANGEIHLSGGNSLSVNQKVDKLIANWDSFSVAAGERVIFNQPSSSSIALNRVIGTKASDIQGRIDANGQVFLVNPNGVLFGRGAQVNVGGLVASTLDITDAEFNGNSSRYRFTGPSTNGVLNHGGAITAAEGGSIALLGAQVDNRGTVLAQMGGVGLGAGSDLTLNFDGNKLLDIRVDAGVANALASNGGLLKADGGRVLMAARTANALLNTVVNSQGAIEARSLRGKNGRIVLDG
# Legend:
# Assay in all cases: glycan array binding signal (z-score within array); higher = stronger binding
# Details in all cases: glycan notation: IUPAC condensed, linker removed
# [1] = target: Fuc(a1-2)[Gal(a1-3)]Gal(b1-4)GlcNAc(b1-2)Man(a1-3)[Fuc(a1-2)[Gal(a1-3)]Gal(b1-4)GlcNAc(b1-2)Man(a1-6)]Man(b1-4)GlcNAc(b1-4)GlcNAc
# Procedure, shortened: (§1)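 Glycan array data came from 3228 arrays in the Consortium for Functional Glycomics database, and only arrays with an available protein sequence were kept. Glycan names were put into IUPAC-condensed notation, and columns mapping to the same glycan were averaged. The binding signal is a within-array Z-score, averaged across arrays of one protein sequence run at different concentrations or buffers and across linkers. A negative Z-score can be read as non-binding.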
# [2] = target: Fuc(a1-2)[Gal(a1-3)]Gal(b1-4)GlcNAc(b1-2)Man(a1-3)[Fuc(a1-2)[Gal(a1-3)]Gal(b1-4)GlcNAc(b1-2)Man(a1-6)]Man(b1-4)GlcNAc(b1-4)[Fuc(a1-6)]GlcNAc
# Procedure, shortened: as §1
# [3] = target: Fuc(a1-2)[Gal(a1-3)]Gal(b1-4)GlcNAc(b1-3)GalNAc
# Procedure, shortened: as §1
# [4] = target: Fuc(a1-2)[Gal(a1-3)]Gal(b1-4)GlcNAc(b1-3)[Fuc(a1-2)[Gal(a1-3)]Gal(b1-4)GlcNAc(b1-6)]GalNAc
# Procedure, shortened: as §1
# [5] = target: Fuc(a1-2)[Gal(a1-3)]Gal(b1-4)GlcNAc(b1-6)GalNAc
# Procedure, shortened: as §1
# [6] = target: Fuc(a1-2)[Gal(a1-3)]Gal(b1-4)[Fuc(a1-3)]Glc
# Procedure, shortened: as §1
# [7] = target: Fuc(a1-2)[Gal(a1-3)]Gal(b1-4)[Fuc(a1-3)]GlcNAc
# Procedure, shortened: as §1
# [8] = target: Fuc(a1-2)[Gal(a1-3)]Gal(b1-4)[Fuc(a1-3)]GlcNAc(b1-3)GalNAc
# Procedure, shortened: as §1
# [9] = target: Fuc(a1-2)[Gal(a1-4)]Gal(b1-4)GlcNAc
# Procedure, shortened: as §1
# [10] = target: Fuc(a1-2)[GalNAc(a1-3)]Gal
# Procedure, shortened: as §1
# [11] = target: Fuc(a1-2)[GalNAc(a1-3)]Gal(b1-3)GalNAc(a1-3)[Fuc(a1-2)]Gal(b1-4)GlcNAc
# Procedure, shortened: as §1
# [12] = target: Fuc(a1-2)[GalNAc(a1-3)]Gal(b1-3)GalNAc(b1-3)Gal(a1-4)Gal(b1-4)Glc
# Procedure, shortened: as §1
# [13] = target: Fuc(a1-2)[GalNAc(a1-3)]Gal(b1-3)GlcNAc
# Procedure, shortened: as §1
# [14] = target: Fuc(a1-2)[GalNAc(a1-3)]Gal(b1-3)GlcNAc(b1-2)Man(a1-3)[Fuc(a1-2)[GalNAc(a1-3)]Gal(b1-3)GlcNAc(b1-2)Man(a1-6)]Man(b1-4)GlcNAc(b1-4)GlcNAc
# Procedure, shortened: as §1
# [15] = target: Fuc(a1-2)[GalNAc(a1-3)]Gal(b1-3)GlcNAc(b1-2)Man(a1-3)[Fuc(a1-2)[GalNAc(a1-3)]Gal(b1-3)GlcNAc(b1-2)Man(a1-6)]Man(b1-4)GlcNAc(b1-4)[Fuc(a1-6)]GlcNAc
# Procedure, shortened: as §1
# [16] = target: Fuc(a1-2)[GalNAc(a1-3)]Gal(b1-3)GlcNAc(b1-3)GalNAc
# Procedure, shortened: as §1
# [17] = target: Fuc(a1-2)[GalNAc(a1-3)]Gal(b1-3)GlcNAc(b1-6)GalNAc
# Procedure, shortened: as §1
# [18] = target: Fuc(a1-2)[GalNAc(a1-3)]Gal(b1-4)Glc
# Procedure, shortened: as §1
# [19] = target: Fuc(a1-2)[GalNAc(a1-3)]Gal(b1-4)GlcNAc
# Procedure, shortened: as §1
# [20] = target: Fuc(a1-2)[GalNAc(a1-3)]Gal(b1-4)GlcNAc(b1-2)Man
# Procedure, shortened: as §1
# [21] = target: Fuc(a1-2)[GalNAc(a1-3)]Gal(b1-4)GlcNAc(b1-2)Man(a1-3)[Fuc(a1-2)[GalNAc(a1-3)]Gal(b1-4)GlcNAc(b1-2)Man(a1-6)]Man(b1-4)GlcNAc(b1-4)GlcNAc
# Procedure, shortened: as §1
# [22] = target: Fuc(a1-2)[GalNAc(a1-3)]Gal(b1-4)GlcNAc(b1-2)Man(a1-3)[Fuc(a1-2)[GalNAc(a1-3)]Gal(b1-4)GlcNAc(b1-2)Man(a1-6)]Man(b1-4)GlcNAc(b1-4)[Fuc(a1-6)]GlcNAc
# Procedure, shortened: as §1
# [23] = target: Fuc(a1-2)[GalNAc(a1-3)]Gal(b1-4)GlcNAc(b1-3)Gal(b1-4)GlcNAc
# Procedure, shortened: as §1
# [24] = target: Fuc(a1-2)[GalNAc(a1-3)]Gal(b1-4)GlcNAc(b1-3)Gal(b1-4)GlcNAc(b1-3)Gal(b1-4)GlcNAc
# Procedure, shortened: as §1
# [25] = target: Fuc(a1-2)[GalNAc(a1-3)]Gal(b1-4)GlcNAc(b1-3)GalNAc
# Procedure, shortened: as §1
# [26] = target: Fuc(a1-2)[GalNAc(a1-3)]Gal(b1-4)GlcNAc(b1-3)[Fuc(a1-2)[GalNAc(a1-3)]Gal(b1-4)GlcNAc(b1-6)]GalNAc
# Procedure, shortened: as §1
# [27] = target: Fuc(a1-2)[GalNAc(a1-3)]Gal(b1-4)GlcNAc(b1-6)GalNAc
# Procedure, shortened: as §1
# [28] = target: Fuc(a1-2)[GalNAc(a1-3)]Gal(b1-4)[Fuc(a1-3)]GlcNAc
# Procedure, shortened: as §1
# [29] = target: Fuc(a1-2)[GalNAc(a1-3)]Gal(b1-4)[Fuc(a1-3)]GlcNAc(b1-3)GalNAc
# Procedure, shortened: as §1
# [30] = target: Fuc(a1-2)[GalNAc(a1-4)]Gal(b1-4)GlcNAc
# Procedure, shortened: as §1
# [31] = target: Fuc(a1-2)[GalNAc(b1-3)]Gal
# Procedure, shortened: as §1
# [32] = target: Fuc(a1-3)GlcNAc
# Procedure, shortened: as §1
# [33] = target: Fuc(a1-3)[Gal(b1-4)]Glc6S
# Procedure, shortened: as §1
# [34] = target: Fuc(a1-3)[Gal(b1-4)]GlcNAc
# Procedure, shortened: as §1
# [35] = target: Fuc(a1-3)[Gal(b1-4)]GlcNAc(b1-2)Man
# Procedure, shortened: as §1
# [36] = target: Fuc(a1-3)[Gal(b1-4)]GlcNAc(b1-2)Man(a1-3)[Fuc(a1-3)[Gal(b1-4)]GlcNAc(b1-2)Man(a1-6)]Man(b1-4)GlcNAc(b1-4)GlcNAc
# Procedure, shortened: as §1
# [37] = target: Fuc(a1-3)[Gal(b1-4)]GlcNAc(b1-2)Man(a1-3)[Fuc(a1-3)[Gal(b1-4)]GlcNAc(b1-2)Man(a1-6)]Man(b1-4)GlcNAc(b1-4)[Fuc(a1-6)]GlcNAc
# Procedure, shortened: as §1
binder,measurement,setting,value
B1,glycan array binding signal (z-score),[1],0.438
same,glycan array binding signal (z-score),[2],0.235
same,glycan array binding signal (z-score),[3],0.218
same,glycan array binding signal (z-score),[4],0.378
same,glycan array binding signal (z-score),[5],-0.574
same,glycan array binding signal (z-score),[6],-0.521
same,glycan array binding signal (z-score),[7],-0.072
same,glycan array binding signal (z-score),[8],1.01
same,glycan array binding signal (z-score),[9],0.037
same,glycan array binding signal (z-score),[10],-0.045
same,glycan array binding signal (z-score),[11],-0.324
same,glycan array binding signal (z-score),[12],-0.03
same,glycan array binding signal (z-score),[13],0.017
same,glycan array binding signal (z-score),[14],-0.739
same,glycan array binding signal (z-score),[15],-0.684
same,glycan array binding signal (z-score),[16],0.951
same,glycan array binding signal (z-score),[17],-0.055
same,glycan array binding signal (z-score),[18],-0.302
same,glycan array binding signal (z-score),[19],-0.46
same,glycan array binding signal (z-score),[20],0.117
same,glycan array binding signal (z-score),[21],-0.808
same,glycan array binding signal (z-score),[22],1.6
same,glycan array binding signal (z-score),[23],0.054
same,glycan array binding signal (z-score),[24],0.917
same,glycan array binding signal (z-score),[25],-0.326
same,glycan array binding signal (z-score),[26],-0.788
same,glycan array binding signal (z-score),[27],-0.432
same,glycan array binding signal (z-score),[28],-0.283
same,glycan array binding signal (z-score),[29],1.74
same,glycan array binding signal (z-score),[30],-0.386
same,glycan array binding signal (z-score),[31],-0.608
same,glycan array binding signal (z-score),[32],-0.88
same,glycan array binding signal (z-score),[33],0.202
same,glycan array binding signal (z-score),[34],-0.322
same,glycan array binding signal (z-score),[35],0.155
same,glycan array binding signal (z-score),[36],-0.467
same,glycan array binding signal (z-score),[37],1.94

# Two entries drawn at random from those above, as already listed:
binder,measurement,setting,value
B1,glycan array binding signal (z-score),[27],-0.432
same,glycan array binding signal (z-score),[30],-0.386
